# Measurements taken from paper doi:10.1101/2023.08.18.553817.
# Protein sequences, listed by entry. Tags and fused reporters are not part of them. Lines headed by an entry give the natural chain unless they say otherwise; changes in a name come on top. Chains listed by the source or under a name are the forms on record and can include a tag or linker. Residues count along the entry.
# FLAG-TAX1BP1^CC1 (WT) (Q86VP1, residues 147-343): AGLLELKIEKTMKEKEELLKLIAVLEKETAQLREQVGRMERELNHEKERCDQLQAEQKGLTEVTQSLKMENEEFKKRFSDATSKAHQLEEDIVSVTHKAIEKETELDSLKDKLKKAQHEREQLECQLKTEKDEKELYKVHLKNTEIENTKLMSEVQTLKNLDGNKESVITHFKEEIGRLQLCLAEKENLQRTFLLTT
# FLAG-TAX1BP1^CC1 (K248E) (Q86VP1, form named): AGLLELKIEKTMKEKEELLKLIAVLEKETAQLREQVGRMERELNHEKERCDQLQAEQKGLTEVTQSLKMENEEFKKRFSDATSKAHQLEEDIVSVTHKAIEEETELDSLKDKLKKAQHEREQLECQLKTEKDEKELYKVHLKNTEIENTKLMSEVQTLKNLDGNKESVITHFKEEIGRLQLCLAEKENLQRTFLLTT
# B1: ATG9B (protein, UniProt Q674R7 1-924)
# chain: MVSRMGWGGRRRRLGRWGDLGPGSVPLLPMPLPPPPPPSCRGPGGGRISIFSLSPAPHTRSSPSSFSPPTAGPPCSVLQGTGASQSCHSALPIPATPPTQAQPAMTPASASPSWGSHSTPPLAPATPTPSQQCPQDSPGLRVGPLIPEQDYERLEDCDPEGSQDSPIHGEEQQPLLHVPEGLRGSWHHIQNLDSFFTKIYSYHQRNGFACILLEDVFQLGQFIFIVTFTTFLLRCVDYNVLFANQPSNHTRPGPFHSKVTLSDAILPSAQCAERIRSSPLLVLLLVLAAGFWLVQLLRSVCNLFSYWDIQVFYREALHIPPEELSSVPWAEVQSRLLALQRSGGLCVQPRPLTELDIHHRILRYTNYQVALANKGLLPARCPLPWGGSAAFLSRGLALNVDLLLFRGPFSLFRGGWELPHAYKRSDQRGALAARWGRTVLLLAALNLALSPLVLAWQVLHVFYSHVELLRREPGALGARGWSRLARLQLRHFNELPHELRARLARAYRPAAAFLRTAAPPAPLRTLLARQLVFFAGALFAALLVLTVYDEDVLAVEHVLTAMTALGVTATVARSFIPEEQCQGRAPQLLLQTALAHMHYLPEEPGPGGRDRAYRQMAQLLQYRAVSLLEELLSPLLTPLFLLFWFRPRALEIIDFFHHFTVDVAGVGDICSFALMDVKRHGHPQWLSAGQTEASLSQRAEDGKTELSLMRFSLAHPLWRPPGHSSKFLGHLWGRVQQDAAAWGATSARGPSTPGVLSNCTSPLPEAFLANLFVHPLLPPRDLSPTAPCPAAATASLLASISRIAQDPSSVSPGGTGGQKLAQLPELASAEMSLHVIYLHQLHQQQQQQEPWGEAAASILSRPCSSPSQPPSPDEEKPSWSSDGSSPASSPRQQWGTQKARNLFPGGFQVTTDTQKEPDRASCTD
# B2: SCAMP3 (protein, UniProt O14828 1-347)
# chain: MAQSRDGGNPFAEPSELDNPFQDPAVIQHRPSRQYATLDVYNPFETREPPPAYEPPAPAPLPPPSAPSLQPSRKLSPTEPKNYGSYSTQASAAAATAELLKKQEELNRKAEELDRRERELQHAALGGTATRQNNWPPLPSFCPVQPCFFQDISMEIPQEFQKTVSTMYYLWMCSTLALLLNFLACLASFCVETNNGAGFGLSILWVLLFTPCSFVCWYRPMYKAFRSDSSFNFFVFFFIFFVQDVLFVLQAIGIPGWGFSGWISALVVPKGNTAVSVLMLLVALLFTGIAVLGIVMLKRIHSLYRRTGASFQKAQQEFAAGVFSNPAVRTAAANAAAGAAENAFRAP
# B3: ATG9A (protein, UniProt Q7Z3C6 1-839)
# chain: MAQFDTEYQRLEASYSDSPPGEEDLLVHVAEGSKSPWHHIENLDLFFSRVYNLHQKNGFTCMLIGEIFELMQFLFVVAFTTFLVSCVDYDILFANKMVNHSLHPTEPVKVTLPDAFLPAQVCSARIQENGSLITILVIAGVFWIHRLIKFIYNICCYWEIHSFYLHALRIPMSALPYCTWQEVQARIVQTQKEHQICIHKRELTELDIYHRILRFQNYMVALVNKSLLPLRFRLPGLGEAVFFTRGLKYNFELILFWGPGSLFLNEWSLKAEYKRGGQRLELAQRLSNRILWIGIANFLLCPLILIWQILYAFFSYAEVLKREPGALGARCWSLYGRCYLRHFNELEHELQSRLNRGYKPASKYMNCFLSPLLTLLAKNGAFFAGSILAVLIALTIYDEDVLAVEHVLTTVTLLGVTVTVCRSFIPDQHMVFCPEQLLRVILAHIHYMPDHWQGNAHRSQTRDEFAQLFQYKAVFILEELLSPIVTPLILIFCLRPRALEIIDFFRNFTVEVVGVGDTCSFAQMDVRQHGHPQWLSAGQTEASVYQQAEDGKTELSLMHFAITNPGWQPPRESTAFLGFLKEQVQRDGAAASLAQGGLLPENALFTSIQSLQSESEPLSLIANVVAGSSCRGPPLPRDLQGSRHRAEVASALRSFSPLQPGQAPTGRAHSTMTGSGVDARTASSGSSVWEGQLQSLVLSEYASTEMSLHALYMHQLHKQQAQAEPERHVWHRRESDESGESAPDEGGEGARAPQSIPRSASYPCAAPRPGAPETTALHGGFQRRYGGITDPGTVPRVPSHFSRLPLGGWAEDGQSASRHPEPVPEEGSEDELPPQVHKV
# Target: FLAG-TAX1BP1^CC1 (WT) (human) (UniProt Q86VP1)
# Test: affinity purification with mass spectrometry
row,Binder,binding
1,B1,no binding
2,B2,binds
3,B3,no binding

# Target: FLAG-TAX1BP1^CC1 (K248E) (human) (UniProt Q86VP1)
# Test: affinity purification with mass spectrometry
row,Binder,binding
1,B1,no binding
2,B2,binds
3,B3,no binding

# No constants are given. Whether binding was seen depends on the method and setting. Binding seen in cells or lysates may run through a third protein. These calls come from enrichment with a bait or labelling near it, and not all partners need be listed. No binding means not detected with the bait.
